Binding data for two molecules are collected here from PMC4961226.

These are yes or no findings as the source states them, for the method shown. Binding seen in cells or lysates may run through a third protein. For part of these data: Binding can be weak; no strength is given.

The target of test [1] is CD95^1–175 (GFP-fused) (human). In words: co-IP; HEK cells transiently co-transfected with GFP-fused CD95 constructs and wild-type PLCγ1, stimulated with CD95L (100 ng/mL); CD95 protein complex immunoprecipitated from lysates, immunoblotting.
The target of test [2] is CD95^1–210 (GFP-fused) (human). Described as above.
Test [3] has as its target intracellular region of CD95 (amino acids 175–319) fused to F2 (human). The test is described as follows: split reporter; Renilla luciferase-based protein fragment complementation assay (RLuc-PCA): fragments F1 and F2 fused to PLCγ1 and CD95 domains, co-transfected in HEK cells, luminescence.

B1: wild-type PLCγ1 (enzyme, UniProt P19174 1-1290)
chain: MAGAASPCANGCGPGAPSDAEVLHLCRSLEVGTVMTLFYSKKSQRPERKTFQVKLETRQITWSRGADKIEGAIDIREIKEIRPGKTSRDFDRYQEDPAFRPDQSHCFVILYGMEFRLKTLSLQATSEDEVNMWIKGLTWLMEDTLQAPTPLQIERWLRKQFYSVDRNREDRISAKDLKNMLSQVNYRVPNMRFLRERLTDLEQRSGDITYGQFAQLYRSLMYSAQKTMDLPFLEASTLRAGERPELCRVSLPEFQQFLLDYQGELWAVDRLQVQEFMLSFLRDPLREIEEPYFFLDEFVTFLFSKENSVWNSQLDAVCPDTMNNPLSHYWISSSHNTYLTGDQFSSESSLEAYARCLRMGCRCIELDCWDGPDGMPVIYHGHTLTTKIKFSDVLHTIKEHAFVASEYPVILSIEDHCSIAQQRNMAQYFKKVLGDTLLTKPVEISADGLPSPNQLKRKILIKHKKLAEGSAYEEVPTSMMYSENDISNSIKNGILYLEDPVNHEWYPHYFVLTSSKIYYSEETSSDQGNEDEEEPKEVSSSTELHSNEKWFHGKLGAGRDGRHIAERLLTEYCIETGAPDGSFLVRESETFVGDYTLSFWRNGKVQHCRIHSRQDAGTPKFFLTDNLVFDSLYDLITHYQQVPLRCNEFEMRLSEPVPQTNAHESKEWYHASLTRAQAEHMLMRVPRDGAFLVRKRNEPNSYAISFRAEGKIKHCRVQQEGQTVMLGNSEFDSLVDLISYYEKHPLYRKMKLRYPINEEALEKIGTAEPDYGALYEGRNPGFYVEANPMPTFKCAVKALFDYKAQREDELTFIKSAIIQNVEKQEGGWWRGDYGGKKQLWFPSNYVEEMVNPVALEPEREHLDENSPLGDLLRGVLDVPACQIAIRPEGKNNRLFVFSISMASVAHWSLDVAADSQEELQDWVKKIREVAQTADARLTEGKIMERRKKIALELSELVVYCRPVPFDEEKIGTERACYRDMSSFPETKAEKYVNKAKGKKFLQYNRLQLSRIYPKGQRLDSSNYDPLPMWICGSQLVALNFQTPDKPMQMNQALFMTGRHCGYVLQPSTMRDEAFDPFDKSSLRGLEPCAISIEVLGARHLPKNGRGIVCPFVEIEVAGAEYDSTKQKTEFVVDNGLNPVWPAKPFHFQISNPEFAFLRFVVYEEDMFSDQNFLAQATFPVKGLKTGYRAVPLKNNYSEDLELASLLIKIDIFPAKENGDLSPFSGTSLRERGSDASGQLFHGRAREGSFESRYQQPFEDFRISQEHLADHFDSRERRAPRRTRVNGDNRL
As for B1, the binding result in test [1] is on record as “no binding”; in test [2], “binds”.

B2: PLCγ1-SH3-F1 (domain or fragment, UniProt P19174 790-851)
chain: PTFKCAVKALFDYKAQREDELTFIKSAIIQNVEKQEGGWWRGDYGGKKQLWFPSNYVEEMVN
For B2, the binding entry in test [3] is reported as “binds”.
